Values from PubChem BioAssay AID1159578 (Peter MacCallum Cancer Centre, 2015).
This is an unselected part of about 18,000 deposited reagents. About 1,030 of all reagents (5.7%) count as active. 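Inactive calls also include pools with fewer than 3300 nuclei, whose migration was not assessed.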 Raw values are not corrected between plates. Not all columns of the deposit are shown.

- Test: 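siRNA pools altering how lymphatic endothelial cells close a scratch wound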 (primary screen)
- Cells: human lymphatic endothelial cells
- Reagents: siRNA pool against human genes, 40 nM
- Timing: 48 h after transfection
- Read-out: 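High-content imaging of dye-stained cells in a scratch assay measures filled wound area and nuclei per well; duplicate means given as ratio to mock and robust z-score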
- Direction: migration robust z-score: higher = faster migration into the scratch; nuclei per well: higher = more cells in the well
- Call rule: 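Pools averaging fewer than 3300 nuclei are never called; remaining pools count as changed when migration robust z lies outside -2 to 2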
- Meaning of the calls: active = migration changed; inactive = no migration change, or too few cells

GABRP
- migration robust z-score: -1.03
- nuclei per well, duplicate mean: 5283
- outcome: inactive

CCSER1
- migration robust z-score: -0.64
- nuclei per well, duplicate mean: 5666
- outcome: inactive

PARP6
- migration robust z-score: -0.8
- nuclei per well, duplicate mean: 4102
- outcome: inactive

EAF2
- migration robust z-score: 0.6
- nuclei per well, duplicate mean: 6428
- outcome: inactive

CDK5R2
- migration robust z-score: -5.17
- nuclei per well, duplicate mean: 2324
- outcome: inactive

NDUFV1
- migration robust z-score: 0.08
- nuclei per well, duplicate mean: 5786
- outcome: inactive

PLPP3
- migration robust z-score: -2.83
- nuclei per well, duplicate mean: 6098
- outcome: active

PYCR2
- migration robust z-score: 0.08
- nuclei per well, duplicate mean: 5333
- outcome: inactive

GALNT15
- migration robust z-score: -1.06
- nuclei per well, duplicate mean: 6664
- outcome: inactive

SCEL
- migration robust z-score: -0.08
- nuclei per well, duplicate mean: 6253
- outcome: inactive

MLLT1
- migration robust z-score: 1.01
- nuclei per well, duplicate mean: 4362
- outcome: inactive

LBX1
- migration robust z-score: 0.86
- nuclei per well, duplicate mean: 6018
- outcome: inactive

NR4A1
- migration robust z-score: -0.23
- nuclei per well, duplicate mean: 6978
- outcome: inactive

POLN
- migration robust z-score: -0.2
- nuclei per well, duplicate mean: 6734
- outcome: inactive

UBQLN2
- migration robust z-score: 1.66
- nuclei per well, duplicate mean: 6294
- outcome: inactive

RASIP1
- migration robust z-score: 1.25
- nuclei per well, duplicate mean: 5440
- outcome: inactive

LPAR4
- migration robust z-score: -0.18
- nuclei per well, duplicate mean: 5739
- outcome: inactive

PTCD3
- migration robust z-score: 2.29
- nuclei per well, duplicate mean: 6770
- outcome: active

PIK3CD-AS1
- migration robust z-score: 0.19
- nuclei per well, duplicate mean: 4796
- outcome: inactive

P2RY11
- migration robust z-score: 1.35
- nuclei per well, duplicate mean: 5970
- outcome: inactive

WDR46
- migration robust z-score: -0.9
- nuclei per well, duplicate mean: 6280
- outcome: inactive

3 neighbouring entries already listed, quoted:
LBX1
- migration robust z-score: 0.86
- nuclei per well, duplicate mean: 6018
- outcome: inactive

NR4A1
- migration robust z-score: -0.23
- nuclei per well, duplicate mean: 6978
- outcome: inactive

POLN
- migration robust z-score: -0.2
- nuclei per well, duplicate mean: 6734
- outcome: inactive
